Data: patent publication US10273241B2 (President and Fellows of Harvard College, priority 2013, dated 2019)
Some of these results come from one statement about several compounds together.

System: MOLM-14 cells overexpressing FLAG-CDK8 W105M or FLAG-CDK19 W105M
Assay: Growth inhibition of cells overexpressing FLAG-CDK8 W105M or FLAG-CDK19 W105M
Format: cell-based, human
Settings: fresh compound added on day 3

C[C@]12CC=C3C=C4CC[C@H]([N+](C)(C)[O-])CC45CC[C@]3(O5)[C@@H]1CC[C@@H]2c1ccc2ccncc2c1 [14BNO, 14B-N-Oxide]
desensitization to growth inhibition: > 50 fold
